The record followed here is paper PMC7819943, “Rice protein-binding microarrays: a tool to detect cis-acting elements near promoter regions in rice”.

Amino acid sequences for entries named in this document (tags omitted).
UniProt Q0JBA9, entry or part of it: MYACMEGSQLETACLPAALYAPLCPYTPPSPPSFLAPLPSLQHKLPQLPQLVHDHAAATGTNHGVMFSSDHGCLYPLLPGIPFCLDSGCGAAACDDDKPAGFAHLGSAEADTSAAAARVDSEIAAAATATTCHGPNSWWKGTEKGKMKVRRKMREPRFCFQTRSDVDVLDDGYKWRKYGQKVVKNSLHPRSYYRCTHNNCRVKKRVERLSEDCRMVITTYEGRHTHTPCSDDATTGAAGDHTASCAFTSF

The list shows a part of the results.

This assay addresses OsWRKY34 (Oryza sativa, UniProt Q0JBA9 1-250). The assay is described as follows: protein-binding microarray (RPBM); PBS, 2% BSA, 51.3 ng/ul salmon testes DNA, 50 uM zinc acetate, 200 nM TF, 25 C, 1 h; high values mean tight binding. Conditions: protein: recombinant; tags: N-terminal polyhistidine and DsRed monomer fusion (pET32a); label: CyDye5-dUTP incorporated in the synthesized complementary strand; 3' TTTTT single-stranded linker to array surface; dsDNA, one strand shown. Summed up:
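Polyhistidine-tagged DsRed fusions of transcription factors, joined at the N-terminus, were expressed in E. coli BL21-CodonPlus and isolated on Ni–NTA. They were incubated at 200 nM for 1 h at 25 °C on a custom Agilent array, double-stranded and BSA-blocked, in PBS with 2% BSA, salmon testes DNA and 50 µM zinc acetate. The binding signal is per-feature fluorescence intensity (arbitrary units) read on an Axon 4000B scanner after washing.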
Turning to “CCGTTCGCTTGAAATCCATCCCATCCATCCTTGGCTTACTCGGAGTCACCTAGTGCAG”, the binding signal was 8420 fluorescence intensity (a.u.).

On to “ATAAGCTCCGGCATCATCTCCATCATCTCATAGTCCTCTTCGGAGTCACCTAGTGCAG”, for which the binding signal is 9450 fluorescence intensity (a.u.).

In the case of “TAGATTCCACCTTAAAATTTTTCACTCTGTCACATCGAACCGGAGTCACCTAGTGCAG”, the binding signal was 9300 fluorescence intensity (a.u.).

Regarding “GATGCATATCAATCTAGCATTGCCGGTCAACGTTCTCGAGCGGAGTCACCTAGTGCAG”, the binding signal was 8240 fluorescence intensity (a.u.).

Consider “TTCCTTCTTTCCATTTATTTTCTTTTATTTTCCCAAGAGACGGAGTCACCTAGTGCAG”, for which the binding signal is 9060 fluorescence intensity (a.u.).

Turning to “TATCCCACTTTATATTTTCTACGTGTCCGCATAACAGAACCGGAGTCACCTAGTGCAG”, the binding signal is 8990 fluorescence intensity (a.u.).

On to “AACTGGTGATACTCTGCTCTTAGTTTTATTTTTTTCCGAACGGAGTCACCTAGTGCAG”, for which the binding signal was 8750 fluorescence intensity (a.u.).

With “GCCTTACTTTAGCACCTTGAAAGCCGTATACACAATTACACGGAGTCACCTAGTGCAG”, the binding signal is 8490 fluorescence intensity (a.u.).

For “TTTTGTTCGTTCTCTTTCGCTCTCGAGGTCTCTCTCTCTCCGGAGTCACCTAGTGCAG”, the binding signal is 9570 fluorescence intensity (a.u.).

Turning to “AATATGTTTGTTTTGTGTTGAAAATACTACTAGATTTTTCCGGAGTCACCTAGTGCAG”, the binding signal was 8720 fluorescence intensity (a.u.).

Regarding “GGTCATTCCCGAGTCCCCATCTGGCCATCTCTCCAATCTCCGGAGTCACCTAGTGCAG”, the binding signal was 8400 fluorescence intensity (a.u.).

With “AATCGCCGCAATATATCTCGCCCGTTGCTGCCAGGTTCAGCGGAGTCACCTAGTGCAG”, the binding signal was 8880 fluorescence intensity (a.u.).

Regarding “TCCCCGCCGATCACGCCGCTCGCCGCTCGCCACCGCCGGACGGAGTCACCTAGTGCAG”, the binding signal is 8790 fluorescence intensity (a.u.).

On to “CTTTGGCTTTTTCTCGGTCTTCGAAGTGGTATTCCGATGACGGAGTCACCTAGTGCAG”, for which the binding signal was 8220 fluorescence intensity (a.u.).

Take “CTTCTTTGGTCGTTTTGGCCTCGAGCTCCGTTCTTAAACTCGGAGTCACCTAGTGCAG”: the binding signal was 10300 fluorescence intensity (a.u.).

Consider “TGCATCTCGCCTTATCCCCGCGCCGGCGCTAGGCGAATCGCGGAGTCACCTAGTGCAG”, for which the binding signal is 8340 fluorescence intensity (a.u.).

With “TTTTTTCCTTTCAAGTGTGTACTGGCGCTAAATTCGCCTTCGGAGTCACCTAGTGCAG”, the binding signal is 9650 fluorescence intensity (a.u.).

As to “AACTTTTCTACATACACTTCCAACTTTTTTCGTTACATCGCGGAGTCACCTAGTGCAG”, the binding signal was 8830 fluorescence intensity (a.u.).

As for “ACCGTTTATCCGCATCGCTCTAATCCCTATCGTCCACAGGCGGAGTCACCTAGTGCAG”, the binding signal was 10300 fluorescence intensity (a.u.).

As to “TTGGTTGATGGCTAAGTTTACTATACCTCACTTTGCCACACGGAGTCACCTAGTGCAG”, the binding signal was 8250 fluorescence intensity (a.u.).

Consider “TGTTTTGTTGTTGGCCATGGCCCATGCTCTGCACTGTGCACGGAGTCACCTAGTGCAG”, for which the binding signal is 9440 fluorescence intensity (a.u.).

As to “TCTCTCTGTGTGTGTTTGTGTCATATATGAGTTTGTGGGTCGGAGTCACCTAGTGCAG”, the binding signal is 9570 fluorescence intensity (a.u.).

Take “CTTCTCATTTTCTTTCTGGTGTCGTTTTTGTTTGACGATTCGGAGTCACCTAGTGCAG”: the binding signal was 10600 fluorescence intensity (a.u.).

Regarding “CGTCCGATTCATATAATTAGTCCTCAGTCGTCCGCCTAGTCGGAGTCACCTAGTGCAG”, the binding signal was 10100 fluorescence intensity (a.u.).

In the case of “TTATCCACCACCACCACCACCACGCCGCTCGCTGCCTTCGCGGAGTCACCTAGTGCAG”, the binding signal is 11000 fluorescence intensity (a.u.).

On to “CACAGGTTGCAGCTGCCTATAAAATAGACAGACGGCAAGTCGGAGTCACCTAGTGCAG”, for which the binding signal was 10500 fluorescence intensity (a.u.).

“TCAAACATATGAGAAAAAGTCAACGGCGTCATCTATTAAACGGAGTCACCTAGTGCAG”: the binding signal was 8940 fluorescence intensity (a.u.).

Consider “TATAATTCTCTCTGTATGTATGTGCACATTGACCATGTCGCGGAGTCACCTAGTGCAG”, for which the binding signal was 9580 fluorescence intensity (a.u.).

Regarding “ATCATCAGCCACGCTTGCGGTCGCCACCATCTCGCCATCACGGAGTCACCTAGTGCAG”, the binding signal was 9150 fluorescence intensity (a.u.).

In the case of “AACCGGCCCGGTTCGGTTCACAGCCACACGCCGCGGCCCGCGGAGTCACCTAGTGCAG”, the binding signal was 8020 fluorescence intensity (a.u.).

For the sequence “ACAATTTTAACGTTACACCGAAAACGGCCGCCCATATCACCGGAGTCACCTAGTGCAG”, the binding signal was 8840 fluorescence intensity (a.u.).

For “AGGGCACGGGGAGGGTTGAGCGTGTTGAGCAGCTAACCTTCGGAGTCACCTAGTGCAG”, the binding signal is 8140 fluorescence intensity (a.u.).

For the sequence “AAATCGAATTGGGTGGGCTTCGTCTCGGCCTGCAAAGGATCGGAGTCACCTAGTGCAG”, the binding signal was 8590 fluorescence intensity (a.u.).

Regarding “TTAAACTTTTAGGTGGGCATTTGTATGTTGGTATAGTACCCGGAGTCACCTAGTGCAG”, the binding signal is 11000 fluorescence intensity (a.u.).

With “GTAGAGCAGAGTAGTCTCCGTTCCTGGCCGATCCACCATGCGGAGTCACCTAGTGCAG”, the binding signal was 8750 fluorescence intensity (a.u.).

As to “GCCCAATGCACTAACATCACCTCTTTTTACTATCTTGAAACGGAGTCACCTAGTGCAG”, the binding signal was 8480 fluorescence intensity (a.u.).

Regarding “AAATGTTTCAATCGTTTAAATCGGGCGTTGTTTGACCGAACGGAGTCACCTAGTGCAG”, the binding signal was 8230 fluorescence intensity (a.u.).

As to “CCTGCACCAACTCCGTCCACCACACCGGCGGTGCTGCCGCCGGAGTCACCTAGTGCAG”, the binding signal is 8220 fluorescence intensity (a.u.).

For “GTTTTTTACTGTTCATCTCCAACGTTTGACTGTTCGTTTTCGGAGTCACCTAGTGCAG”, the binding signal is 9140 fluorescence intensity (a.u.).

With “CCCAAGTTCAGGTTGTGTCTGCCTGCCTGCCTGTGAATTTCGGAGTCACCTAGTGCAG”, the binding signal was 9530 fluorescence intensity (a.u.).

Regarding “CACCGCCGCCGCCTCCTCCTCCTCCGCCTCTCTACGGCAGCGGAGTCACCTAGTGCAG”, the binding signal was 9980 fluorescence intensity (a.u.).

Consider “GGTGTGTTTATAATTAATATACAGATTGTGTCACATTGTTCGGAGTCACCTAGTGCAG”, for which the binding signal was 9000 fluorescence intensity (a.u.).
